Measurements as given in patent US20030148381A1.
These are yes or no findings as the source states them, for the method shown.

Molecular target: his-tagged myosin VIIa C-terminal tail fragment (C-terminal MyTH4+FERM repeat) (zebrafish)
Experiment: in vitro binding with constructs expressing harmonin PDZ domains

- binding: no binding
B1: harmonin PDZ2 domain (amino acids 189-307) (protein, mouse, UniProt Q9ES64 189-307, looked up, not shown: a dimerising Fc or GST)
chain: VSESGGVRGGLGSPGNRTTKEKKVFISLVGSRGLGCSISSGPIQKPGIFVSHVKPGSLSAEVGLETGDQIVEVNGIDFTNLDHKEAVNVLKSSRSLTISIVAGAGRELFMTDRERLEEA
